# The list shows only some results of the screen, not a fair sample: it is rich in T/C values a quarter to a half above the control, in often repeated tests (any T/C) and in doses without a T/C. Further doses and runs are listed elsewhere. T/C gives the treated animals as a percentage of the vehicle group. Some entries give survivors of the animals treated and no T/C: the source holds a T/C of zero for them, seemingly a mark for toxic or unscored doses. Some doses without a T/C left all or most animals alive at the check, yet need not have been tolerated: survival well below the control is almost never listed, so the zero probably covers shortened survival too. Counts of survivors are from the toxicity check (mostly the fifth day) where no day follows; animals may have died later. Schedule codes are those of the source, read here as Q, the interval in days (D) or hours (H), X, the number of doses. Some schedule codes hold Z or #, which are not explained here. Some structures stand for samples that the source files as different forms (salt, stereo form or complex); doses refer to the form tested. Additions like (4×) stand for listed records that agree. Where survival is the endpoint, the PubChem record calls one and a half times the control and up active, and a quarter to a half above the control has no call in these data; cut-offs in other NCI protocols can differ. Some entries hold several experiments; their values stand side by side, smallest first. Some T/C values carry the count of animals alive at the toxicity check (mostly the fifth day); where none is given, no animal had died by that day.
# System: BDF1 mice, intracerebral L1210 leukemia, survival T/C
# Assay: NCI In Vivo Anticancer Drug Screen. Data for tumor model L1210 Leukemia (intracerebral) in B6D2F1 (BDF1) mice
# Conditions: higher T/C = longer survival
# Procedure: The antitumor activity of compounds was measured in mice bearing transplantable tumors. Survival or tumor size were measured and the results are expressed as the measurement made in the treated group (T) divided by the measurement made in the vehicle treated control group (C). The tumor model used in this assay is L1210 Leukemia (intracerebral) in B6D2F1 (BDF1) mice
# [1] = T/C endpoint: mean survival time, dose: 5.0 mg/kg/injection, schedule: Q01DX009 (ip), vehicle: water
# [2] = T/C endpoint: mean survival time, dose: 8.4 mg/kg/injection, schedule: Q01DX009 (ip), vehicle: water
# [3] = T/C endpoint: mean survival time, dose: 14.0 mg/kg/injection, schedule: Q01DX009 (ip), vehicle: water
structure (smiles),measurement,setting,value
COc1cc(NS(C)(=O)=O)ccc1Nc1c2ccccc2nc2ccccc12,survivor count,"T/C endpoint: mean survival time, dose: 4.0 mg/kg/injection, schedule: Q01DX009 (ip), vehicle: other",10 of 10
same,survivor count,[1],7 of 8 (2×)
same,survivor count,"T/C endpoint: mean survival time, dose: 8.0 mg/kg/injection, schedule: Q01DX009 (ip), vehicle: other",10 of 10
same,survivor count,[2],6 of 8 (2×)
same,survivor count,"T/C endpoint: mean survival time, dose: 10.0 mg/kg/injection, schedule: Q01DX009 (ip), vehicle: saline",10 of 10
same,survivor count,[3],4 of 8 (2×)
same,survivor count,"T/C endpoint: mean survival time, dose: 20.0 mg/kg/injection, schedule: Q01DX009 (ip), vehicle: saline",10 of 10
same,survivor count,"T/C endpoint: mean survival time, dose: 23.0 mg/kg/injection, schedule: Q01DX009 (ip), vehicle: water",1 of 8 (2×)
same,survivor count,"T/C endpoint: mean survival time, dose: 39.0 mg/kg/injection, schedule: Q01DX009 (ip), vehicle: water",1 of 8 (2×)
OC(C1CO1)C(O)C1CO1 (centres undefined),survivor count,"T/C endpoint: mean survival time, dose: 0.1 mg/kg/injection, schedule: Q04DX003 (ip), vehicle: saline",2 of 10
same,survivor count,"T/C endpoint: mean survival time, dose: 0.12 mg/kg/injection, schedule: Q03HX024 (ip), vehicle: saline",4 of 10
same,survivor count,"T/C endpoint: mean survival time, dose: 0.2 mg/kg/injection, schedule: Q01DX001 (ip), vehicle: saline",3 of 10
same,survivor count,"T/C endpoint: mean survival time, dose: 0.2 mg/kg/injection, schedule: Q04DX003 (ip), vehicle: saline",6 of 10
same,survivor count,"T/C endpoint: mean survival time, dose: 0.25 mg/kg/injection, schedule: Q01DX009 (ip), vehicle: saline",6 of 10
same,survivor count,"T/C endpoint: mean survival time, dose: 0.25 mg/kg/injection, schedule: Q03HX008 (ip), vehicle: saline",7 of 10
same,survivor count,"T/C endpoint: mean survival time, dose: 0.25 mg/kg/injection, schedule: Q03HX024 (ip), vehicle: saline",6 of 10
same,survivor count,"T/C endpoint: mean survival time, dose: 0.4 mg/kg/injection, schedule: Q01DX001 (ip), vehicle: saline",4 of 10
same,survivor count,"T/C endpoint: mean survival time, dose: 0.4 mg/kg/injection, schedule: Q04DX003 (ip), vehicle: saline",2 of 10
same,survivor count,"T/C endpoint: mean survival time, dose: 0.5 mg/kg/injection, schedule: Q01DX009 (ip), vehicle: saline",7 of 10
same,survivor count,"T/C endpoint: mean survival time, dose: 0.5 mg/kg/injection, schedule: Q03HX008 (ip), vehicle: saline",9 of 10
same,survivor count,"T/C endpoint: mean survival time, dose: 0.5 mg/kg/injection, schedule: Q03HX024 (ip), vehicle: saline",5 of 10
same,survivor count,"T/C endpoint: mean survival time, dose: 0.8 mg/kg/injection, schedule: Q01DX001 (ip), vehicle: saline",5 of 10
same,survivor count,"T/C endpoint: mean survival time, dose: 0.8 mg/kg/injection, schedule: Q04DX003 (ip), vehicle: saline",4 of 10
same,survivor count,"T/C endpoint: mean survival time, dose: 1.0 mg/kg/injection, schedule: Q01DX009 (ip), vehicle: saline",9 of 10
same,survivor count,"T/C endpoint: mean survival time, dose: 1.0 mg/kg/injection, schedule: Q03HX008 (ip), vehicle: saline",10 of 10
same,survivor count,"T/C endpoint: mean survival time, dose: 1.0 mg/kg/injection, schedule: Q03HX024 (ip), vehicle: saline",10 of 10
same,survivor count,"T/C endpoint: mean survival time, dose: 1.6 mg/kg/injection, schedule: Q01DX001 (ip), vehicle: saline",4 of 10
same,survivor count,"T/C endpoint: mean survival time, dose: 1.6 mg/kg/injection, schedule: Q04DX003 (ip), vehicle: saline",6 of 10
same,T/C,"T/C endpoint: mean survival time, dose: 2.0 mg/kg/injection, schedule: Q01DX009 (ip), vehicle: saline",129 and 137 % of control
same,survivor count,"T/C endpoint: mean survival time, dose: 2.0 mg/kg/injection, schedule: Q03HX008 (ip), vehicle: saline",9 of 10
same,T/C,"T/C endpoint: mean survival time, dose: 3.0 mg/kg/injection, schedule: Q01DX009 (ip), vehicle: water",133 % of control
same,survivor count,"T/C endpoint: mean survival time, dose: 3.2 mg/kg/injection, schedule: Q01DX001 (ip), vehicle: saline",6 of 10
same,T/C,"T/C endpoint: mean survival time, dose: 4.0 mg/kg/injection, schedule: Q01DX009 (ip), vehicle: saline",139 % of control
same,survivor count,"T/C endpoint: mean survival time, dose: 4.0 mg/kg/injection, schedule: Q03HX008 (ip), vehicle: saline",9 of 10
same,T/C,"T/C endpoint: mean survival time, dose: 5.0 mg/kg/injection, schedule: Q01DX001 (ip), vehicle: water, evaluated on day 7",132 % of control
same,T/C,"T/C endpoint: mean survival time, dose: 5.0 mg/kg/injection, schedule: Q01DX001 (ip), vehicle: water, evaluated on day 20",132 % of control
same,survivor count,[1],8 of 8
same,survivor count,"T/C endpoint: mean survival time, dose: 8.0 mg/kg/injection, schedule: Q01DX009 (ip), vehicle: saline",6 of 6
same,survivor count,[2],5 of 8
same,T/C,"T/C endpoint: mean survival time, dose: 10.0 mg/kg/injection, schedule: Q01DX001 (ip), vehicle: water, evaluated on day 7",143 % of control
same,T/C,"T/C endpoint: mean survival time, dose: 10.0 mg/kg/injection, schedule: Q01DX001 (ip), vehicle: water, evaluated on day 20",143 % of control
same,survivor count,[3],2 of 8
same,T/C,"T/C endpoint: median survival time, dose: 1.0 mg/kg/injection, schedule: Q01DX001 (oral), vehicle: saline",131 % of control
same,T/C,"T/C endpoint: median survival time, dose: 2.0 mg/kg/injection, schedule: Q01DX001 (oral), vehicle: saline",130 % of control
NC(Cc1ccc(N(CCCl)CCCl)cc1)C(=O)O (centres undefined),T/C,"T/C endpoint: mean survival time, dose: 18.0 mg/kg/injection, schedule: Q01DX001 (ip), vehicle: carboxymethylcellulose (CMC)",125 % of control
CC(=O)OCC1OC(n2cnc3c(=S)nc[nH]c32)C(OC(C)=O)C1OC(C)=O (centres undefined),T/C,"T/C endpoint: mean survival time, dose: 50.0 mg/kg/injection, schedule: Q01DX Z (ip), vehicle: carboxymethylcellulose (CMC)",131 % of control (2×)
same,T/C,"T/C endpoint: mean survival time, dose: 100.0 mg/kg/injection, schedule: Q01DX Z (ip), vehicle: carboxymethylcellulose (CMC)",138 % of control
CC(C)(C)C1CCCC(NC(=O)N(CCCl)N=O)C1 (centres undefined),T/C,"T/C endpoint: mean survival time, dose: 82.0 mg/kg/injection, schedule: Q01DX001 (ip), vehicle: saline with Tween-80",148 % of control
same,T/C,"T/C endpoint: mean survival time, dose: 125.0 mg/kg/injection, schedule: Q01DX001 (ip), vehicle: saline with Tween-80",144 % of control
same,T/C,"T/C endpoint: mean survival time, dose: 280.0 mg/kg/injection, schedule: Q01DX001 (ip), vehicle: saline with Tween-80",132 % of control
Nc1ncn(C2OC(CO)C(O)C2O)c(=O)n1 (centres undefined),T/C,"T/C endpoint: mean survival time, dose: 40.0 mg/kg/injection, schedule: Q01DX001 (ip), vehicle: saline",132 % of control [9 of 10 alive]
same,T/C,"T/C endpoint: mean survival time, dose: 55.0 mg/kg/injection, schedule: Q01DX001 (ip), vehicle: saline",135 % of control
same,T/C,"T/C endpoint: mean survival time, dose: 70.0 mg/kg/injection, schedule: Q01DX001 (ip), vehicle: saline",139 % of control [9 of 10 alive]
same,T/C,"T/C endpoint: mean survival time, dose: 85.0 mg/kg/injection, schedule: Q01DX001 (ip), vehicle: saline",126 % of control
same,T/C,"T/C endpoint: mean survival time, dose: 100.0 mg/kg/injection, schedule: Q01DX001 (ip), vehicle: saline",141 % of control [9 of 10 alive]
CC[n+]1ccc(Nc2ccc(NC(=O)c3ccc(Nc4cc[n+](CC)c5ccc(N)cc45)cc3)cc2)cc1,survivor count,"T/C endpoint: mean survival time, dose: 16.0 mg/kg/injection, schedule: Q01DX009 (ip), vehicle: water",1 of 10
CC[C@H]1CN2CCc3cc(OC)c(OC)cc3[C@@H]2C[C@@H]1C[C@H]1NCCc2cc(OC)c(OC)cc21,survivor count,"T/C endpoint: mean survival time, dose: 16.0 mg/kg/injection, schedule: Q01DX009 (ip), vehicle: saline",8 of 10
same,survivor count,"T/C endpoint: mean survival time, dose: 64.0 mg/kg/injection, schedule: Q08DX002 (ip), vehicle: saline",0 of 10
O=NN(CCF)C(=O)Nc1ccccc1,T/C,"T/C endpoint: mean survival time, dose: 12.0 mg/kg/injection, schedule: Q01DX001 (ip), vehicle: other",126 % of control
same,T/C,"T/C endpoint: mean survival time, dose: 18.0 mg/kg/injection, schedule: Q01DX001 (ip), vehicle: other",134 % of control
same,survivor count,"T/C endpoint: mean survival time, dose: 27.0 mg/kg/injection, schedule: Q01DX001 (ip), vehicle: other",1 of 6
O=c1[nH]cc(F)c(=O)[nH]1,T/C,"T/C endpoint: mean survival time, dose: 119.25 mg/kg/injection, schedule: Q01DX001 (ip), vehicle: carboxymethylcellulose (CMC)",132 % of control
same,T/C,"T/C endpoint: mean survival time, dose: 159.0 mg/kg/injection, schedule: Q01DX001 (ip), vehicle: carboxymethylcellulose (CMC)",130 % of control
same,T/C,"T/C endpoint: median survival time, dose: 23.0 mg/kg/injection, schedule: Q01DX009 (ip), vehicle: saline",128 % of control
same,T/C,"T/C endpoint: median survival time, dose: 65.0 mg/kg/injection, schedule: Q04DX003 (ip), vehicle: saline",142 % of control
O=NN(CCCl)C(=O)Nc1ccc(SCC(=O)O)cc1,survivor count,"T/C endpoint: mean survival time, dose: 40.0 mg/kg/injection, schedule: Q01DX001 (ip), vehicle: carboxymethylcellulose (CMC)",10 of 10
S=P(N1CC1)(N1CC1)N1CC1,T/C,"T/C endpoint: mean survival time, dose: 23.0 mg/kg/injection, schedule: Q01DX001 (ip), vehicle: saline",133 % of control [9 of 10 alive]
N#[N+]c1cnc([O-])[nH]c1=O,survivor count,"T/C endpoint: mean survival time, dose: 30.0 mg/kg/injection, schedule: Q01DX Z (ip), vehicle: alkali diluted with saline",6 of 6
same,survivor count,"T/C endpoint: mean survival time, dose: 35.0 mg/kg/injection, schedule: Q01DX Z (ip), vehicle: alkali diluted with saline",5 of 6

# — PubChem BioAssay AID252 (DTP/NCI, 2004)
